These are yes or no findings as the source states them, for the method shown. In cells and extracts the contact can be indirect. Some entries that bind do so weakly or less than the wild type.
Legend:
[1] = biological target: Aryl hydrocarbon receptor (mouse Ahr) tagged with GFP (mouse) (UniProt P30561); test: co-IP; in vivo: lysates of heat-shocked larvae (2 hours at 37°C); mouse anti-GFP on Protein-G Sepharose precipitates the GFP fusion; Tgo detected by Western blot with anti-Tgo
[2] = biological target: Tango (Tgo), in vitro translated (Drosophila) (UniProt O15945); test: co-IP; in vitro: proteins expressed in rabbit reticulocyte lysates, 35S-labelled as required; HEPES 20 mM pH 7.9, NaCl 50 mM, 1% Np40; anti-Tgo or anti-Arnt on Protein-G Sepharose; without or with dioxin in binding reaction and washes; 35S detected with a Typhoon TRIO scanner
[3] = biological target: Aryl hydrocarbon receptor nuclear translocator (Arnt), in vitro translated (UniProt P53762); test: as above

Protein sequences, listed by entry. Tags and fused reporters are not part of them. Lines headed by an entry give the natural chain unless they say otherwise; changes in a name come on top. Chains listed by the source or under a name are the forms on record and can include a tag or linker. Residues count along the entry.
UniProt P30561: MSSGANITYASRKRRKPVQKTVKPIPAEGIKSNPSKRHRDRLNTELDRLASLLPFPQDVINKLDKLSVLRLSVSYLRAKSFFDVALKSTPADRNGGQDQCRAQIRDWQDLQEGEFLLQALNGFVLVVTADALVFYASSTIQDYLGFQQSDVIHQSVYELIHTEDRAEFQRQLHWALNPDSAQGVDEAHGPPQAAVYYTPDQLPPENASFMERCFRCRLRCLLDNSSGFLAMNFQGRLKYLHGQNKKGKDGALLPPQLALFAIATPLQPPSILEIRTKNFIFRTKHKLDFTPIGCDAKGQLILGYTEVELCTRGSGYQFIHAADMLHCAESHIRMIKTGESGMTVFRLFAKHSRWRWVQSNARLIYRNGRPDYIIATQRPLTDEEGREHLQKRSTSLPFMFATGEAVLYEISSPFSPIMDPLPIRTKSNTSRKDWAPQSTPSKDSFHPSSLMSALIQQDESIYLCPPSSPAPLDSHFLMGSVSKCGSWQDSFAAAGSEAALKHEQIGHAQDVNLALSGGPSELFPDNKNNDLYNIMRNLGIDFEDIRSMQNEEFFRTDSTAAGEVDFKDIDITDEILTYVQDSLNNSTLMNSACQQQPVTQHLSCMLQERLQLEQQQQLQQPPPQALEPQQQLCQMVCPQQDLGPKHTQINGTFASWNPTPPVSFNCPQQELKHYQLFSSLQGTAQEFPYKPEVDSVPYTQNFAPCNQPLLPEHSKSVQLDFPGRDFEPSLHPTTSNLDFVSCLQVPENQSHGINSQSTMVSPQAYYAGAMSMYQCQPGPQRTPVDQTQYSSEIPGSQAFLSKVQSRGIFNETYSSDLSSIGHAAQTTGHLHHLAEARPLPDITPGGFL
Aryl hydrocarbon receptor (mouse Ahr) tagged with GFP: residues 10-848 of P30561
UniProt O15945: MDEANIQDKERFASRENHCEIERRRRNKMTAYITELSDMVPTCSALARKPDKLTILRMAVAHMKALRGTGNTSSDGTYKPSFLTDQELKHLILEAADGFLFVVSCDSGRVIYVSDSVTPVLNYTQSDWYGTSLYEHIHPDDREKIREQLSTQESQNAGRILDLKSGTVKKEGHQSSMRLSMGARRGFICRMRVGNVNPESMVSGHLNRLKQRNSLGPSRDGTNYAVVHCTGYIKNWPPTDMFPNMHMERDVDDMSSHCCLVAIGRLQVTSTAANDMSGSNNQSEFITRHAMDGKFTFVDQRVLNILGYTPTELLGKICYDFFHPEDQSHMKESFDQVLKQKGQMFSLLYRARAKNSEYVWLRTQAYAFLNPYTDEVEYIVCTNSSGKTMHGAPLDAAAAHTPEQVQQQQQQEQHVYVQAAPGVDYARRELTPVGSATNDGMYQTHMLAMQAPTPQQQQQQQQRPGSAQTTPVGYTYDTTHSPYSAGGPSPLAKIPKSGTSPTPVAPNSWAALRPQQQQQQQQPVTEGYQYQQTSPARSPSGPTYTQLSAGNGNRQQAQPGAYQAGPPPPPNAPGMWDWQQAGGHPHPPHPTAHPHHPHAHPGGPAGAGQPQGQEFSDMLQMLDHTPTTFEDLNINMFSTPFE
UniProt P53762: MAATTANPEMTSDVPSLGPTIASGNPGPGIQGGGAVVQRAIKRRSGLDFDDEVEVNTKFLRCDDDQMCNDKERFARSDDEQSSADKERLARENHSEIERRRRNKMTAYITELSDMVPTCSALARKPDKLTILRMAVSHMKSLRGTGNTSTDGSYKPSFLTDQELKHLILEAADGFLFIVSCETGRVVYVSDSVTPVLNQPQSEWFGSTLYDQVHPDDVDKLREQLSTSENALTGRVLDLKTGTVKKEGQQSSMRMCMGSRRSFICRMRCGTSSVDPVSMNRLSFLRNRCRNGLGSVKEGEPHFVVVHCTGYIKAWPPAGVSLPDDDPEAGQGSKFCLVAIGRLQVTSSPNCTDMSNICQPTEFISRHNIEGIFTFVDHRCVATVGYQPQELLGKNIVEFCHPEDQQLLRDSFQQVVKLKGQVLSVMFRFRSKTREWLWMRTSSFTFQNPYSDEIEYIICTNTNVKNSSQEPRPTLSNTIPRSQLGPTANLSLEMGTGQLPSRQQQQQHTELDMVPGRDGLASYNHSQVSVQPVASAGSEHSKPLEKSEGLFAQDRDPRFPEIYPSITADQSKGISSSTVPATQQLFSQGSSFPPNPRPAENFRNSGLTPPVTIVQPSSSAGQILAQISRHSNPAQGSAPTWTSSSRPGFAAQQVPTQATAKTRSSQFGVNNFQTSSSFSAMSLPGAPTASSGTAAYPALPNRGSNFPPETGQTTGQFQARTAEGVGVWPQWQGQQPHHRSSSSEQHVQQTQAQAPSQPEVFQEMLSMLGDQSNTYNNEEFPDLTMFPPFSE

binding [1]	binding [2]	binding [3]	Substance
binds			Tango (Tgo), the fly homologue of Arnt, endogenous (from UniProt O15945 1-642)
	binds	binds	Aryl hydrocarbon receptor (Ahr), 35S-labelled, in vitro translated (from UniProt P30561 1-848)

From PMC2975661
